# Measurements from patent publication US9517222B2, “Method for the treatment of senile dementia of the Alzheimer's type” (Phenomenome Discoveries Inc., priority 2007, dated 2016).
# Some values come without a unit; they compare only within their column.
# Assays:
# [1] = Serum ethanolamine phospholipid ratios to PtdEt 16:0/18:0 (M01) in human cohorts
# [2] = Serum ethanolamine phospholipid levels in human cohorts (dementia severity, post-mortem pathology, age) by flow-injection MS/MS
# [3] = serum, females, post mortem SDAT
# [4] = serum, females, post mortem control
compound,measurement,setting,value
"CCCCC/C=C\C/C=C\C/C=C\C/C=C\CCCC(=O)OC(COCCCCCCCCCCCCCCCC)COP(=O)(O)OCCN (centres unmarked) [Metabolite M07, Plasmanyl 16:0/20:4]",Ratio of ethanolamine phospholipid ratios to M01 between cohorts,"[1]; AD, All to CN, Male",0.673
same,Ratio of ethanolamine phospholipid ratios to M01 between cohorts,"[1]; ADAS 5-19 to CN, Male",0.715
same,Ratio of ethanolamine phospholipid ratios to M01 between cohorts,"[1]; ADAS 20-39 to CN, Male",0.676
same,Ratio of ethanolamine phospholipid ratios to M01 between cohorts,"[1]; ADAS 40-70 to CN, Male",0.580
same,"Average serum ethanolamine phospholipid ratio to M01, Mean","[1]; Cognitive Normal, Male, serum",0.554
same,"Average serum ethanolamine phospholipid ratio to M01, Mean","[1]; SDAT, ADAS 5-19, Male, serum",0.396
same,"Average serum ethanolamine phospholipid ratio to M01, Mean","[1]; SDAT, ADAS 20-39, Male, serum",0.375
same,"Average serum ethanolamine phospholipid ratio to M01, Mean","[1]; SDAT, ADAS 40-70, Male, serum",0.321
same,"Average serum ethanolamine phospholipid ratio to M01, Mean","[1]; SDAT_all, Male, serum",0.373
same,"Ethanolamine Phospholipid Ratio to M01, Mean, Age Ctl, 30-39, Female","[1]; human serum, females aged 30-39",0.618
same,"Ethanolamine Phospholipid Ratio to M01, Mean, Age Ctl, 40-49, Female","[1]; human serum, females aged 40-49",0.667
same,"Ethanolamine Phospholipid Ratio to M01, Mean, Age Ctl, 50-59, Female","[1]; human serum, females aged 50-59",0.582
same,"Ratio of Ethanolamine Phospholipid Ratio to M01, 50-59 vs. 40-49, Female","[1]; human serum, females aged 50-59 vs. females aged 40-49",0.873
same,"Ethanolamine Phospholipid Ratio to M01, Mean, Age Ctl, 60-69, Female","[1]; human serum, females aged 60-69",0.435
same,"Ratio of Ethanolamine Phospholipid Ratio to M01, 60-69 vs. 40-49, Female","[1]; human serum, females aged 60-69 vs. females aged 40-49",0.652
same,"Ethanolamine Phospholipid Ratio to M01, Mean, Age Ctl, 70+_Female","[1]; human serum, females aged 70+",0.430
same,"Ratio of Ethanolamine Phospholipid Ratio to M01, 70+ vs. 40-49, Female","[1]; human serum, females aged 70+ vs. females aged 40-49",0.644
same,"Ratio of Ethanolamine Phospholipid Ratio to M01, 50-59 vs. 40-49, Male","[1]; human serum, males aged 50-59 vs. males aged 40-49",1.177
same,"Ratio of Ethanolamine Phospholipid Ratio to M01, 60-69 vs. 40-49, Male","[1]; human serum, males aged 60-69 vs. males aged 40-49",0.970
same,"Ratio of Ethanolamine Phospholipid Ratio to M01, 70+ vs. 40-49, Male","[1]; human serum, males aged 70+ vs. males aged 40-49",0.927
same,"Ratio of ethanolamine phospholipid ratio to M01, ADAS 5-19 to CN, Female","[1]; serum, females, ADAS 5-19 vs cognitive normal",0.890
same,"Ratio of ethanolamine phospholipid ratio to M01, ADAS 20-39 to 5-19, Female","[1]; serum, females, ADAS 20-39 vs ADAS 5-19",0.895
same,"Ratio of ethanolamine phospholipid ratio to M01, ADAS 20-39 to CN, Female","[1]; serum, females, ADAS 20-39 vs cognitive normal",0.796
same,"Ratio of ethanolamine phospholipid ratio to M01, ADAS 40-70 to 5-19, Female","[1]; serum, females, ADAS 40-70 vs ADAS 5-19",0.745
same,"Ratio of ethanolamine phospholipid ratio to M01, ADAS 40-70 to 20-39, Female","[1]; serum, females, ADAS 40-70 vs ADAS 20-39",0.833
same,"Ratio of ethanolamine phospholipid ratio to M01, ADAS 40-70 to CN, Female","[1]; serum, females, ADAS 40-70 vs cognitive normal",0.663
same,"Ethanolamine phospholipid ratio to M01, Mean, SDAT, ADAS 5-19, Female","[1]; serum, females, SDAT ADAS 5-19",0.422
same,"Ethanolamine phospholipid ratio to M01, Mean, SDAT, ADAS 20-39, Female","[1]; serum, females, SDAT ADAS 20-39",0.377
same,"Ethanolamine phospholipid ratio to M01, Mean, SDAT, ADAS 40-70, Female","[1]; serum, females, SDAT ADAS 40-70",0.314
same,"Ratio of ethanolamine phospholipid ratio to M01, AD, All to CN, Female","[1]; serum, females, all AD vs cognitive normal",0.776
same,"Ethanolamine phospholipid ratio to M01, Mean, SDAT_all Female","[1]; serum, females, all SDAT",0.368
same,"Ratio of ethanolamine phospholipid ratio to M01, Autopsy AD vs. Control, Female","[1]; serum, females, autopsy AD vs post mortem control",0.752
same,"Ethanolamine phospholipid ratio to M01, Mean, Cognitive Normal, Female","[1]; serum, females, cognitive normal",0.474
same,"Ethanolamine phospholipid ratio to M01, Mean, Post Mortem SDAT Female",[1]; [3],0.077
same,"Ethanolamine phospholipid ratio to M01, Mean, Post Mortem Ctl, Female",[1]; [4],0.102
same,"Ratio of ethanolamine phospholipid ratio to M01, ADAS 20-39 to 5-19, Male","[1]; serum, males, SDAT ADAS 20-39 vs ADAS 5-19",0.946
same,"Ratio of ethanolamine phospholipid ratio to M01, ADAS 40-70 to 5-19, Male","[1]; serum, males, SDAT ADAS 40-70 vs ADAS 5-19",0.811
same,"Ratio of ethanolamine phospholipid ratio to M01, ADAS 40-70 to 20-39, Male","[1]; serum, males, SDAT ADAS 40-70 vs ADAS 20-39",0.857
same,"Ethanolamine phospholipid ratio to M01, Mean, Age Ctl, 30-39, Male","[1]; serum, males, age control 30-39",0.683
same,"Ethanolamine phospholipid ratio to M01, Mean, Age Ctl, 40-49, Male","[1]; serum, males, age control 40-49",0.493
same,"Ethanolamine phospholipid ratio to M01, Mean, Age Ctl, 50-59, Male","[1]; serum, males, age control 50-59",0.581
same,"Ethanolamine phospholipid ratio to M01, Mean, Age Ctl, 60-69, Male","[1]; serum, males, age control 60-69",0.479
same,"Ethanolamine phospholipid ratio to M01, Mean, Age Ctl, 70+_Male","[1]; serum, males, age control 70+",0.457
same,"Ethanolamine phospholipid ratio to M01, Mean, Post Mortem SDAT Male","[1]; serum, males, post mortem SDAT",0.059
same,"Ratio of ethanolamine phospholipid ratio to M01, SDAT vs Control (post mortem, males)","[1]; serum, males, post mortem SDAT vs post mortem control",0.549
same,"Ethanolamine phospholipid ratio to M01, Mean, Post Mortem Ctl, Male","[1]; serum, males, post mortem control",0.107
same,Ratio of serum levels,"[2]; AD, All to CN, Male",0.709
same,Ratio of serum levels,"[2]; ADAS 5-19 to CN, Male",0.753
same,Ratio of serum levels,"[2]; ADAS 20-39 to 5-19, Male",0.935
same,Ratio of serum levels,"[2]; ADAS 20-39 to CN, Male",0.704
same,Ratio of serum levels,"[2]; ADAS 40-70 to 5-19, Male",0.783
same,Ratio of serum levels,"[2]; ADAS 40-70 to 20-39, Male",0.837
same,Ratio of serum levels,"[2]; ADAS 40-70 to CN, Male",0.589
same,"Serum level, Mean","[2]; Cognitive Normal, Female",0.056
same,"Average serum level, Mean","[2]; Cognitive Normal, Male",0.062
same,"Serum level, Mean","[2]; Post Mortem Ctl, Male",0.012
same,"Serum level, Mean",[2]; Post Mortem SDAT Male,0.009
same,Ratio of serum levels,"[2]; Post mortem SDAT vs Control, Male",0.451
same,"Serum level, Mean","[2]; SDAT, ADAS 5-19, Female",0.044
same,"Average serum level, Mean","[2]; SDAT, ADAS 5-19, Male",0.047
same,"Serum level, Mean","[2]; SDAT, ADAS 20-39, Female",0.042
same,"Average serum level, Mean","[2]; SDAT, ADAS 20-39, Male",0.044
same,"Serum level, Mean","[2]; SDAT, ADAS 40-70, Female",0.036
same,"Average serum level, Mean","[2]; SDAT, ADAS 40-70, Male",0.036
same,"Serum level, Mean","[2]; SDAT_all, Female",0.041
same,"Average serum level, Mean","[2]; SDAT_all, Male",0.044
same,"Ratio, ADAS 5-19 to CN, Female","[2]; serum level ratio, females, ADAS 5-19 vs CN",0.798
same,"Ratio, ADAS 20-39 to 5-19, Female","[2]; serum level ratio, females, ADAS 20-39 vs ADAS 5-19",0.944
same,"Ratio, ADAS 20-39 to CN, Female","[2]; serum level ratio, females, ADAS 20-39 vs CN",0.753
same,"Ratio, ADAS 40-70 to 5-19, Female","[2]; serum level ratio, females, ADAS 40-70 vs ADAS 5-19",0.822
same,"Ratio, ADAS 40-70 to 20-39, Female","[2]; serum level ratio, females, ADAS 40-70 vs ADAS 20-39",0.871
same,"Ratio, ADAS 40-70 to CN, Female","[2]; serum level ratio, females, ADAS 40-70 vs CN",0.656
same,"Ratio, 50-59 vs. 40-49, Female","[2]; serum level ratio, females, age 50-59 vs 40-49",0.798
same,"Ratio, 60-69 vs. 40-49, Female","[2]; serum level ratio, females, age 60-69 vs 40-49",0.718
same,"Ratio, 70+ vs. 40-49, Female","[2]; serum level ratio, females, age 70+ vs 40-49",0.726
same,"Ratio, AD, All to CN, Female","[2]; serum level ratio, females, all AD vs cognitively normal",0.732
same,"Ratio, Autopsy AD vs. Control, Female","[2]; serum level ratio, females, autopsy AD vs control",0.530
same,"Ratio, 50-59 vs. 40-49, Male","[2]; serum level ratio, males, age 50-59 vs 40-49",1.198
same,"Ratio, 60-69 vs. 40-49, Male","[2]; serum level ratio, males, age 60-69 vs 40-49",1.164
same,"Ratio, 70+ vs. 40-49, Male","[2]; serum level ratio, males, age 70+ vs 40-49",1.133
same,"Mean serum level, Age Ctl, 30-39, Female","[2]; serum, females, age 30-39",0.061
same,"Mean serum level, Age Ctl, 40-49, Female","[2]; serum, females, age 40-49",0.071
same,"Mean serum level, Age Ctl, 50-59, Female","[2]; serum, females, age 50-59",0.057
same,"Mean serum level, Age Ctl, 60-69, Female","[2]; serum, females, age 60-69",0.051
same,"Mean serum level, Age Ctl, 70+, Female","[2]; serum, females, age 70+",0.052
same,"Mean serum level, Post Mortem SDAT, Female",[2]; [3],0.005
same,"Mean serum level, Post Mortem Ctl, Female",[2]; [4],0.016
same,"Mean serum level, Age Ctl, 30-39, Male","[2]; serum, males, age 30-39",0.078
same,"Mean serum level, Age Ctl, 40-49, Male","[2]; serum, males, age 40-49",0.053
same,"Mean serum level, Age Ctl, 50-59, Male","[2]; serum, males, age 50-59",0.063
same,"Mean serum level, Age Ctl, 60-69, Male","[2]; serum, males, age 60-69",0.061
same,"Mean serum level, Age Ctl, 70+, Male","[2]; serum, males, age 70+",0.060
